# Results of single-concentration screens

By UniProt entry, the sequences of proteins in these tests, tags left out. Residues count along the entry.
UniProt P9WFT3, whole entry: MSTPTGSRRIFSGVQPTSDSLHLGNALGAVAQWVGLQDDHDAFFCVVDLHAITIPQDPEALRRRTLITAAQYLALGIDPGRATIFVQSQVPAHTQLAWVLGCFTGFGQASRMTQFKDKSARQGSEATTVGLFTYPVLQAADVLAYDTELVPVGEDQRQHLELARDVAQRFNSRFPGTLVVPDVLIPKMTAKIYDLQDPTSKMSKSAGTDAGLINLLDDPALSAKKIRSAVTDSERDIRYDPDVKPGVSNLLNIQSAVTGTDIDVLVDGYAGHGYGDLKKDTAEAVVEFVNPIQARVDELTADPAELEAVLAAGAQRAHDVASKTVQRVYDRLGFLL
UniProt P9WPC5, whole entry: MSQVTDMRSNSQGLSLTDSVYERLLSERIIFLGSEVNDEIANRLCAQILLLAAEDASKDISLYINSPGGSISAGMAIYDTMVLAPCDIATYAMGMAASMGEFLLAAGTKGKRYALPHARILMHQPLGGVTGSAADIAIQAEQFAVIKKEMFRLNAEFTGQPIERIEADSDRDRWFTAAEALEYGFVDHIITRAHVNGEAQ
UniProt P9WPC3, whole entry partner: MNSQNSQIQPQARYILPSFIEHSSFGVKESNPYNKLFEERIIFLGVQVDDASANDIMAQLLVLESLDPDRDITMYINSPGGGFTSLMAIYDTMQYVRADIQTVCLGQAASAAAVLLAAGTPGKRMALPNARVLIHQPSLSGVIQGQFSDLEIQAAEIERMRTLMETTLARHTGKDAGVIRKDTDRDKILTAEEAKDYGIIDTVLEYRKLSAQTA
UniProt Q4DA54, 1-478: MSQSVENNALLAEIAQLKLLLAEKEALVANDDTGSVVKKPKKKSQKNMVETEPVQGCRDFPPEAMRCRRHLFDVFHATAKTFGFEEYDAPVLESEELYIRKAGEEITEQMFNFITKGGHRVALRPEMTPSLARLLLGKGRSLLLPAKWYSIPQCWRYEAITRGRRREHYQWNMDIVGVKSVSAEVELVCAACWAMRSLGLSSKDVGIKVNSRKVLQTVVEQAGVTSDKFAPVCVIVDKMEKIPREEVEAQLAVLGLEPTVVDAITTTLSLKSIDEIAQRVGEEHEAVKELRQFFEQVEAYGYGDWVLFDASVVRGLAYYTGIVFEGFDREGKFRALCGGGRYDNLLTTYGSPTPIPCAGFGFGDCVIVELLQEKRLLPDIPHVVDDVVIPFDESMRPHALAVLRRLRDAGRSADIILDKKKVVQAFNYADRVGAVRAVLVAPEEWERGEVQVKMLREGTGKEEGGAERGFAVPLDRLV

From ChEMBL document CHEMBL3988442, “University of Dundee, Small-Polar-MMV Screening Library” (2021).

The filed quantity is “Percent Effect” (%).
How 0% and 100% were set is not recorded. Most values in the screen are low, and negative values occur.
This is an unselected part of the compounds tested.

A: 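Enzyme assay of tryptophanyl-tRNA synthetase; the read-out is not stated. Target: Tryptophan-tRNA ligase, Mycobacterium tuberculosis (UniProt P9WFT3). Compounds at 10 µM. Higher most likely means stronger inhibition; the record gives no direction and few retests gave an IC50. About 65,000 compounds were tested under these conditions; 0.098% (about 64) showed 50% or more at least once.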
B: 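ClpP1P2, Mycobacterium tuberculosis (UniProt P9WPC5 and UniProt P9WPC3). Protease assay of ClpP1P2, read by the AMC dye that it sets free. Concentration: 50 µM. Higher reads as stronger inhibition, judged from the few compounds that gave an IC50. Most other retested compounds had strongly negative values. Size under these conditions: about 69,000 compounds, about 10 of them at 50% or above in at least one test.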
C: 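Histidine-tRNA ligase, Trypanosoma cruzi CL Brener (UniProt Q4DA54). Enzyme assay of histidyl-tRNA synthetase; the read-out is not stated. Compounds at 30 µM. The record gives no direction; compounds that gave an IC50 in retests scored well above the rest, so higher reads as stronger inhibition. Of about 69,000 compounds tested this way, about 31 (0.045%) reached 50% or more in at least one test.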

{"compound": "CCc1cc(C(F)(F)F)c2c(C)nn(CC(=O)O)c2n1", "A": -1.917, "B": 6.376, "C": 6.452}
{"compound": "COCCN1CCO[C@H]2[C@H](OCc3cccc(C)n3)CC[C@@H]21", "A": 2.138, "B": 0.002788, "C": 2.488}
{"compound": "CCN1CC(C(=O)NC(C)(C)C(=O)OC)CC1=O", "stereo": "centres undefined", "A": -1.826, "B": 21.87, "C": 12.06}
{"compound": "COCCCNC(=O)Cc1cc(-c2ccc(Cl)cc2)on1", "A": 8.919, "B": 7.681, "C": -3.333}
{"compound": "N#CCCNC(=O)CSc1ccc(F)cc1F", "A": -4.131, "B": 1.991, "C": 2.041}
{"compound": "CC(=O)N1CCN(C(=O)c2ccc(Sc3ccccn3)cc2)CC1", "A": -0.9238, "B": 5.224, "C": 4.124}
{"compound": "COCCc1nnc(NC(=O)CSCc2ccccc2)o1", "A": -1.36, "B": -10.7, "C": -1.212}
{"compound": "CN(C1CCCCC1)S(=O)(=O)NC1CCCN(c2ncccn2)C1", "stereo": "centres undefined", "A": 1.48, "B": -2.536, "C": 7.389}
{"compound": "O=c1[nH]ccc2cc(-c3cc(O)cc(CCC4CCCCN4)c3)ccc12", "stereo": "centres undefined", "A": -13.78, "B": 2.373, "C": 5.759}
{"compound": "CC(=O)Nc1ccc([C@@H](O)[C@H]2COCC(=O)N2CC(C)C)cc1", "A": -1.602, "B": -2.249, "C": 0.4975}
{"compound": "O=C(c1cn(-c2cc(N3CCSCC3)ncn2)cn1)N1CCSCC1", "A": -3.065, "B": -0.7149, "C": 4.132}
{"compound": "c1cc(CN2C[C@@H]3OCCN(CC4CC4)[C@@H]3C2)n[nH]1", "B": 0.6015, "C": 3.518}
{"compound": "O=S(=O)(CCN1CCN(c2ccccc2O)CC1)c1ccc(Cl)cc1", "A": -3.61, "B": 1.365, "C": 3.191}
{"compound": "CS(=O)(=O)NC1CCCN(C(=O)c2cccnc2)C1", "stereo": "centres undefined", "A": -0.1254, "B": -51.61, "C": 4.373}
{"compound": "CN(C)Cc1cnc2n1CCN(C(=O)C1CC=CC1)CC2", "A": 1.251, "B": -5.734, "C": 8.824}
{"compound": "CC(Cn1cccn1)NC(=O)c1cccs1", "stereo": "centres undefined", "A": -3.278, "B": -11.32, "C": 7.345}
{"compound": "O=C(NC1CC1)[C@H]1C[C@@H]2CCN(Cc3ccc4c(c3)OCO4)C[C@@H]2O1", "A": -4.359, "B": 5.486, "C": 9.091}
{"compound": "CCCS(=O)(=O)N1CCc2nc(N3CCOCC3)nc(N(C)C)c2C1", "A": 5.286, "B": 14.25, "C": -2.532}
{"compound": "Cc1nccc([C@H]2C[C@@H]3CCN(S(=O)(=O)C4CC4)C[C@H]3O2)n1", "A": -4.809, "B": -7.838, "C": 2.804}
{"compound": "CC(=O)Nc1nc(CS(=O)(=O)CCCc2ccccc2)cs1", "A": 0.6221, "B": -4.87, "C": -6.931}
{"compound": "O=C(c1ccccc1)N1CCN(CC(O)c2ccc(F)cc2)CC1", "stereo": "centres undefined", "A": 2.893, "B": -8.324, "C": 7.602}
{"compound": "Cc1cnn(C(C)C2CC2)c1NC(=O)c1cnccn1", "stereo": "centres undefined", "A": 2.757, "B": 2.745, "C": 2.479}